Results taken from PMC11956869.
Results are given in words; binding and its absence hold for the method and conditions named. For part of these data: In cells and extracts the contact can be indirect. Some results given as binding are weak or reduced against the parent protein; the word gives no strength. For part of these data: Where a sequence is shown, tags or fusion partners need not be part of it.

Assays:
[1] = biological target: Merlin (Mer), full length, expressed in S2R+ cells (Drosophila) (UniProt Q24564); assay: cross-linking; intact transfected S2R+ cells in PBS pH 8.0, 0.05 mM disuccinimidyl suberate (DSS), room temperature 30 min, quenched with 20 mM Tris-HCl pH 7.5, western blot
[2] = biological target: T1, 6xHis-Mer-CFP (Mer-mTurquoise2) recombinant protein (Drosophila) (UniProt Q24564); assay: in vitro phase separation assay, enrichment in condensates seen by confocal microscopy; 0.3 uM purified Sav/mScarlet-Hpo complex added 2 h after induction of Mer-CFP condensation (0.3 uM Mer-CFP, 150 mM NaCl); imaged 30 min later; both purified
T1 sequence: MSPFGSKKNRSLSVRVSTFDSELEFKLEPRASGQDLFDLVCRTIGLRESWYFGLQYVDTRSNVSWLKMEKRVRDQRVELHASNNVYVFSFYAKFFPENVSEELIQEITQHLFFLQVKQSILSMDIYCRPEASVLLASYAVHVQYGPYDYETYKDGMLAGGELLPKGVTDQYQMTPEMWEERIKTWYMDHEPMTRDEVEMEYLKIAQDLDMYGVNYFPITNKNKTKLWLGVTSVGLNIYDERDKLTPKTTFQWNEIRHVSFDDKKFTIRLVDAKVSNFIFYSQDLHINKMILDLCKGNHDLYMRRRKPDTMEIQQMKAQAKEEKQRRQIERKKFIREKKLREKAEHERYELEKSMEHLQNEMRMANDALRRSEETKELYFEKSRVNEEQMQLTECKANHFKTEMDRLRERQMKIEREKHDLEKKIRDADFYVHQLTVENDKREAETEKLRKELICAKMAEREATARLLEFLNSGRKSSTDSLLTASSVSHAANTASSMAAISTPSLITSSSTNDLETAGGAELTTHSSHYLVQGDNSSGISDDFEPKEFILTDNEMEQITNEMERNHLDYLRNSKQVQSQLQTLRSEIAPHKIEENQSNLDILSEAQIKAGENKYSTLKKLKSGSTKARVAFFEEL

[3] = biological target: T2, 6xHis-Sav (co-expressed with mScarlet-Hpo) (Drosophila) (UniProt Q9VCR6); assay: co-purification on Ni-NTA; 6xHis-Sav and mScarlet-Hpo co-expressed in E. coli BL21(DE3); lysate in 50 mM Tris-HCl pH 7.5, 500 mM NaCl, 5 mM imidazole, 1 mM DTT on Ni-NTA agarose, washed with 50 mM imidazole, eluted with 150 mM imidazole
T2 sequence: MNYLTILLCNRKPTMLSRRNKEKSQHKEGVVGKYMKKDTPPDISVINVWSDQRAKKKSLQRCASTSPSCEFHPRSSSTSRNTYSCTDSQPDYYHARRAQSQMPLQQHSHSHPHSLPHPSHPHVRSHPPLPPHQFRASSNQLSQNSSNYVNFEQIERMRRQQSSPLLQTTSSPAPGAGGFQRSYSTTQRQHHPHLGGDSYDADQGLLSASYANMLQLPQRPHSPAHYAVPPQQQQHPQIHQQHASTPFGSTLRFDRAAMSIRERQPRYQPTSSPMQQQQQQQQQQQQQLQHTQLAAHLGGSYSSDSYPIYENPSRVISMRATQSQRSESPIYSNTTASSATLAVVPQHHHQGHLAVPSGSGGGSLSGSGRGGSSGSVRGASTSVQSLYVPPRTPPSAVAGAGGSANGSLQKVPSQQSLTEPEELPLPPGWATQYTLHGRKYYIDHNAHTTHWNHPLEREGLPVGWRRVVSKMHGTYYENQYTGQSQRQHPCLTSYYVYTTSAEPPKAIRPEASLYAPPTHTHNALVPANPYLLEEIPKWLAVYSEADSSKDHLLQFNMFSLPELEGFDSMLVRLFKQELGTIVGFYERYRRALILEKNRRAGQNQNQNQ

B1: Merlin (Mer), full length, expressed in S2R+ cells (protein, UniProt Q24564 1-635)
chain: T1 sequence
- binding [1]: binds

B2: 6xHis-Sav/mScarlet-Hpo protein complex (complex, UniProt Q9VCR6 1-608; Q8T0S6 1-669)
chain 1: T2 sequence
chain 2: MSEPEVTSVVDMKSPNISSSCSFFKLKKLSEESLLQPPEKVFDIMYKLGEGSYGSVYKAVHKESSSIVAIKLVPVESDLHEIIKEISIMQQCDSPYVVRYYGSYFKQYDLWICMEYCGAGSVSDIMRLRKKTLTEDEIATILSDTLQGLVYLHLRRKIHRDIKAANILLNTEGYAKLADFGVAGQLTDTMAKRNTVIGTPFWMAPEVIEEIGYDCVADIWSLGITALEMAEGKPPYGEIHPMRAIFMIPQKPPPSFREPDRWSTEFIDFVSKCLVKEPDDRATATELLEHEFIRNAKHRSILKPMLEETCAIREQQRANRSFGGVLAASQAKSLATQENGMQQHITDNAFMEDPGTLVPEKFGEYQQSSASDATMIAHAEQGVDEGTLGPGGLRNLSKAAAPAAASSAASPLDMPAVDSGTMVELESNLGTMVINSDSDDSTTAKNNDDQKPRNRYRPQFLEHFDRKNAGDGRGDEKPIATEYSPAAAEQQQQQQQQQQQQQQDEQHLASGANDLNNWEHNMEMQFQQISAINQYGLQQHQQQQQVLMAYPLMNEQLIALNNQPNLLLSNAAPMGQQGIPAAAPAQPPPAYQNQHMHTQSHAYVEGEFEFLKFLTFDDLNQRLCNIDHEMELEIEQLNKKYNAKRQPIVDAMNAKRKRQQNINNNLIKI
- binding [2]: binds

B3: mScarlet-Hpo (co-expressed with 6xHis-Sav) (protein, UniProt Q8T0S6 1-669)
chain: B2 chain 2
- binding [3]: binds
